Laboratory results as given in patent US20260007767A1 (ACADEMIA SINICA, published 2026).
These are yes or no findings as the source states them, for the method shown. In cells and extracts the contact can be indirect. Binding calls can cover weak binding; strength is not graded here.

Chains of the proteins cited; added tags and fusions are not shown. Lines headed by an entry give the natural chain unless they say otherwise; changes in a name come on top. Residues count along the entry.
UniProt P49771: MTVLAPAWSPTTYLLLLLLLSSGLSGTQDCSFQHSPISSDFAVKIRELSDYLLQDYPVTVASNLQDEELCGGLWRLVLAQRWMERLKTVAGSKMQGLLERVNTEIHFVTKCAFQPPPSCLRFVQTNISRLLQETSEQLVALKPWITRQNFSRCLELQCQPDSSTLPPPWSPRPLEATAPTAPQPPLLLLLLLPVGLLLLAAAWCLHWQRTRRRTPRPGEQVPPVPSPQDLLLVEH
UniProt Q8IWY4, residues 24-988: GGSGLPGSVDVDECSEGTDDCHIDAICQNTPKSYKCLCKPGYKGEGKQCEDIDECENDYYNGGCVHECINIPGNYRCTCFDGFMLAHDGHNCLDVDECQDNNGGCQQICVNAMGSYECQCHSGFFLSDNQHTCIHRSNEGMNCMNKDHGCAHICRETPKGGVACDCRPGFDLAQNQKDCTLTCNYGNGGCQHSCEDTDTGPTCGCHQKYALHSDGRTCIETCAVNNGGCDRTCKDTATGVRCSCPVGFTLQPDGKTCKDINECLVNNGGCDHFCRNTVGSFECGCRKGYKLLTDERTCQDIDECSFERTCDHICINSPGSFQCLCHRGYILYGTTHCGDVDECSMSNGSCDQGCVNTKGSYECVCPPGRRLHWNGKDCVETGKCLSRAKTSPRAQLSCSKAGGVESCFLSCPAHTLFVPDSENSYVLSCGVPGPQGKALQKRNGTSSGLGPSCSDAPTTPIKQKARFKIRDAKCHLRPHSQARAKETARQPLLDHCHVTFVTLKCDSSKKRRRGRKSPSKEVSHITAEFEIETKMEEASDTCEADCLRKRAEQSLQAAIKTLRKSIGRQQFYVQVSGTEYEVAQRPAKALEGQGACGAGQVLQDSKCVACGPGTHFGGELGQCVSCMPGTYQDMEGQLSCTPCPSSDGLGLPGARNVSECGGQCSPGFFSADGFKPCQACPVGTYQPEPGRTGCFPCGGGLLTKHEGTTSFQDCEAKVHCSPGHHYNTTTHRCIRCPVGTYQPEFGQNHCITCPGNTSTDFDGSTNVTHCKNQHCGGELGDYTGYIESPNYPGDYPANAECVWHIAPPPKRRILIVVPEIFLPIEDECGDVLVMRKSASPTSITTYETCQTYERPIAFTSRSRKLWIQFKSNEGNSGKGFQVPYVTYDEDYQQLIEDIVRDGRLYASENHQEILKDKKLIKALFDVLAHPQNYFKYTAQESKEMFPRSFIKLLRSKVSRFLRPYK

Target: His-tagged FLT3L (UniProt P49771)
Experiment: co-immunoprecipitation with anti-FLAG antibody, HEK-293T cells

For “FLAG-tagged SCUBE1 (from UniProt Q8IWY4 24-988)”, the binding was “binds”.
